Cell number after 72 h of treatment

From a melanoma drug combination screen (doi:10.1371/journal.pone.0140310); values rounded.

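The test systems are human melanoma cell lines, treated with a pair of drugs for 72 h and then stained and imaged. Values are the number of DAPI-stained nuclei as a percentage of the DMSO control: 100 is no effect, lower means fewer cells. Every drug was used at one fixed concentration, the higher of two screened. The file gives one value for each pair and line, without errors, so small differences may be noise.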
Only some of the drugs and lines screened are listed, without regard to their results.

Compounds and concentrations:
midostaurin, 0.4 µM: CO[C@@H]1[C@H](N(C)C(=O)c2ccccc2)C[C@H]2O[C@]1(C)n1c3ccccc3c3c4c(c5c6ccccc6n2c5c31)C(=O)NC4
KU-55933, 5 µM: O=c1cc(-c2cccc3c2Sc2ccccc2S3)oc(N2CCOCC2)c1
pazopanib, 2 µM: Cc1ccc(Nc2nccc(N(C)c3ccc4c(C)n(C)nc4c3)n2)cc1S(N)(=O)=O
CP-690550, 5 µM: C[C@@H]1CCN(C(=O)CC#N)C[C@@H]1N(C)c1ncnc2[nH]ccc12
bexarotene, 10 µM: C=C(c1ccc(C(=O)O)cc1)c1cc2c(cc1C)C(C)(C)CCC2(C)C
ABT-263, 2 µM: CC1(C)CCC(c2ccc(Cl)cc2)=C(CN2CCN(c3ccc(C(=O)NS(=O)(=O)c4ccc(N[C@H](CCN5CCOCC5)CSc5ccccc5)c(S(=O)(=O)C(F)(F)F)c4)cc3)CC2)C1
PF-04217903, 5 µM: OCCn1cc(-c2cnc3nnn(Cc4ccc5ncccc5c4)c3n2)cn1
SU6656, 2 µM: CN(C)S(=O)(=O)c1ccc2c(c1)/C(=C/c1cc3c([nH]1)CCCC3)C(=O)N2
sorafenib, 2 µM: CNC(=O)c1cc(Oc2ccc(NC(=O)Nc3ccc(Cl)c(C(F)(F)F)c3)cc2)ccn1

Combination | C32
SU6656 and sorafenib | 75.5
CP-690550 and ABT-263 | 92.3
midostaurin and CP-690550 | 79.8
sorafenib and PF-04217903 | 100
midostaurin and sorafenib | 59.6
sorafenib and KU-55933 | 82.5
ABT-263 and midostaurin | 42.9
CP-690550 and PF-04217903 | 102
midostaurin and KU-55933 | 76.0
SU6656 and CP-690550 | 117
KU-55933 and pazopanib | 86.4
bexarotene and midostaurin | 82.2
bexarotene and pazopanib | 107
pazopanib and ABT-263 | 103
midostaurin and PF-04217903 | 95.7
KU-55933 and ABT-263 | 79.5
SU6656 and ABT-263 | 44.2
KU-55933 and bexarotene | 96.2
sorafenib and ABT-263 | 74.8
bexarotene and PF-04217903 | 101
SU6656 and bexarotene | 102
pazopanib and sorafenib | 88.8
CP-690550 and sorafenib | 119
PF-04217903 and KU-55933 | 95.7
SU6656 and KU-55933 | 80.7
PF-04217903 and pazopanib | 105
SU6656 and PF-04217903 | 86.7
ABT-263 and PF-04217903 | 70.3
ABT-263 and bexarotene | 98.7

The first 2 entries again:

Combination	C32
SU6656 and sorafenib	75.5
CP-690550 and ABT-263	92.3